Over roughly 33,000 sequences, “E-score (-0.5 to 0.5)” has its median near -8e-05; the highest 2% begin near 0.23. The list shows a part of the results.
biological target: T1, Nrg2 (UniProt P38082); assay: PBM E-score (8-mer binding enrichment) (E-score (-0.5 to 0.5)); higher = stronger / more preferred TF binding; details: protein concentration: 100 nM; construct: GST-full length
T1 sequence: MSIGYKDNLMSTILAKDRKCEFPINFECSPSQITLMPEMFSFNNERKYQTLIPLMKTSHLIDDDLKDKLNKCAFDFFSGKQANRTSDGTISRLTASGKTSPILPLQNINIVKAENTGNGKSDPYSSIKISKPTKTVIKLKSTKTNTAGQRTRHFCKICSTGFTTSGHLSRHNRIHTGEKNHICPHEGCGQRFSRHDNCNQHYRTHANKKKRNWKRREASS
Summary of the method: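 Bound GST-tagged yeast transcription factors, applied at about 100-200 nM to double-stranded universal all-10-mer Agilent arrays, were detected with fluorescent anti-GST. Scans were normalised with masliner. A modified Wilcoxon-Mann-Whitney statistic, the E-score, was assigned to each ungapped eight-base word pooled with its reverse complement by the Universal PBM Analysis Suite.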

| Sequence | PBM E-score |
| --- | --- |
| CTGGCACC | -0.0867 |
| AATCGATT | 0.247 |
| CAGCCACA | 0.132 |
| CCCAAGCC | -0.12 |
| CTGCGTAC | -0.0163 |
| GTGTGTAA | 0.0615 |
| ACGATCGT | 0.0626 |
| AGAACCAC | 0.0965 |
| GTGGGGAA | 0.0999 |
| GGCCTGTA | -0.133 |
| CCTCTTGA | 0.0273 |
| CTGCGCAC | 0.0755 |
| AAGGCCAT | -0.0415 |
| GCCGGTCA | -0.135 |
| GGTGTTAA | 0.025 |
| CGAGTTAC | 0.215 |
| ACCATTGC | -0.00551 |
| GCGAAACA | 0.0688 |
| AGAGGTTC | -0.0296 |
| CTCACGAG | -0.199 |
| CTCAATTC | 0.0503 |
| ATCATGCA | -0.0548 |
| AAATAATG | 0.13 |
| CCGAATAC | 0.0679 |
| GGACGAAC | -0.00928 |

Taken from above:
Value for GTGTGTAA under PBM E-score: 0.0615
Value for CCTCTTGA under PBM E-score: 0.0273
Value for AGAACCAC under PBM E-score: 0.0965

Following part

| Sequence | PBM E-score |
| --- | --- |
| GCTAAGCA | -0.0969 |
| CACATTGA | 0.0167 |
| AACGTAGT | -0.0644 |
| ATATGGTA | 0.186 |
| CGTTGTAA | -0.119 |
| GTAAGATA | 0.0912 |
| ACCCTGGC | 0.338 |
| TATCAAAA | 0.104 |
| ATATACAA | 0.237 |
| GATCACAA | 0.141 |
| CTCGTCAC | 0.163 |
| ACTACATC | -0.00301 |
| GAAACGGC | -0.00023 |
| CAACTTTA | 0.123 |
| GCCCGAGA | 0.0295 |
| CCAAGCAC | 0.0892 |
| ATTGACCC | -0.0601 |
| ACTCAACG | -0.0402 |
| ATAGGTGG | -0.0621 |
| ACGGCGCT | -0.122 |
| ACTTAAGG | 0.0478 |
| TACGACGA | 0.0241 |
| GGGGCCCA | 0.117 |
| CAAATCAG | 0.0798 |
| CATTCCGA | 0.136 |

| Sequence | PBM E-score |
| --- | --- |
| CTGATAGC | -0.148 |
| GGCTCATA | -0.00373 |
| AGCACCTC | -0.105 |
| CCTAAATA | -0.0809 |
| ACCCCAAA | 0.186 |
| ATATTTCA | 0.133 |
| AACAAGGG | 0.157 |
| AAACAAAC | -0.0324 |
| CGCATCAA | 0.103 |
| AAAATGGT | 0.122 |
| CTCCCAAA | 0.0575 |
| AAGATCTG | 0.155 |
| ACATCCCT | 0.177 |
| ATGTCCTA | -0.0411 |
| TGTAGGAA | -0.156 |
| AAGAGCTG | -0.0447 |
| AGGTTGAA | 0.114 |
| CACGTCCC | -0.0652 |
| AAATACCG | -0.0903 |
| AGGCCCAA | -0.0419 |
| CGCCACAG | -0.04 |
| TTATAGAA | 0.0397 |
| AGCAGTCA | -0.0621 |
| ATTGAAAG | 0.137 |
| CCGAAATA | 0.122 |

| Sequence | PBM E-score |
| --- | --- |
| CCTGTTTC | 0.0282 |
| ACTTTTGG | 0.138 |
| AAACCGTG | -0.0232 |
| GCCGCATA | 0.231 |
| CCGTTACA | 0.066 |
| CCTGCAGC | -0.0348 |
| TATCCATA | 0.0902 |
| TGCCAACA | 0.0266 |
| AGTTAGTG | 0.0168 |
| AAATAGAT | 0.27 |
| TATCGGGA | 0.114 |
| ACCGGCGA | 0.0609 |
| ACTGTGAT | -0.0884 |
| CATATAGG | -0.0251 |
| TACTGACA | 0.217 |
| ATAAGCAC | -0.0237 |
| CTCTATAA | -0.12 |
| AAACTATC | -0.0765 |
| GGCCAATA | 0.0885 |
| ACATCATC | 0.201 |
| CTGGGTGC | -0.262 |
| CGATTCCG | -0.0572 |
| AGCTTACA | 0.128 |
| CTCGTAGA | -0.239 |
| GGGAGGAA | -0.0983 |

| Sequence | PBM E-score |
| --- | --- |
| TAGCGGCA | 0.0381 |
| AAACCAGC | 0.00359 |
| GAAGTGGA | -0.0618 |
| AACGCGGC | 0.0315 |
| CCGGACAA | 0.058 |
| GACCTCCA | -0.0325 |
| TCCGGCGA | 0.0493 |
| GGAGTATA | -0.00591 |
| GTGATCGA | 0.202 |
| CGGTCTTC | -0.126 |
| CCCATGAG | 0.063 |
| GGAAAGCC | 0.0073 |
| ATGAATGA | 0.0659 |
| TGGTGCAA | -0.222 |
| ATTGGCCA | 0.171 |
| GTCCCTTA | 0.288 |
| AACGACGA | 0.209 |
| GAGAGCTA | 0.0932 |
| ACCGTACA | -0.0836 |
| GAAGATGA | -0.0517 |
| GTACGCCA | -0.168 |
| ACTAAACG | -0.0243 |
| CTGACTAC | -0.0182 |
| ACAAGTAT | 0.166 |
| AAGAGTGC | 0.0243 |

Reprinted at random: six entries already listed, in no set order.

| Sequence | PBM E-score |
| --- | --- |
| TAGCGGCA | 0.0381 |
| AACGCGGC | 0.0315 |
| AAACCAGC | 0.00359 |
| TCCGGCGA | 0.0493 |
| GTGATCGA | 0.202 |
| GAGAGCTA | 0.0932 |

The list continues:

| Sequence | PBM E-score |
| --- | --- |
| TCAAGGAA | 0.116 |
| AGTGGTAT | 0.0955 |
| AATCGCCA | 0.0545 |
| TCCCGAAA | -0.0707 |
| AGACTTAC | -0.21 |
| ATGCTCCG | -0.347 |
| ACCACCCA | -0.0198 |
| AATTTGGT | 0.164 |
| ACAGGTAA | -0.00823 |
| AATGGATG | 0.0757 |
| AATGTTTC | -0.0936 |
| ACACAACA | -0.0995 |
| GTTCTGGA | -0.129 |
| GTGGGGGA | -0.305 |
| GATATAAC | 0.105 |
| CTTCCCAA | -0.109 |
| CGATTGGC | 0.00573 |
| ATCACCCG | 0.0954 |
| CTCCAGCC | -0.172 |
| CTCGTCCC | 0.0549 |
| ACCTTTCG | 0.0316 |
| ATTATTTG | 0.127 |
| GGCGAGTA | 0.0611 |
| ATATCTCA | 0.238 |
| GAGGCTGA | -0.157 |

| Sequence | PBM E-score |
| --- | --- |
| ACCCACGA | 0.143 |
| GTGACTAA | 0.00745 |
| GCCTAAGA | -0.0546 |
| GAGTCCGA | 0.0485 |
| TACGAGTA | 0.0605 |
| TCTCCTCA | -0.16 |
| CCGAGGTC | 0.11 |
| AAGTAAGC | -0.0629 |
| ATCCTTAA | 0.0411 |
| GGAGTCTA | -0.146 |
| TTGACCAA | 0.16 |
| ACATGGCC | 0.0562 |
| ACAACCTA | -0.0149 |
| ATAAACTA | 0.00961 |
| CGTAACAA | -0.0839 |
| ACGAGTCG | -0.0502 |
| CGAAGGAG | -0.0551 |
| TACATCTA | 0.0578 |
| ACTCGAAA | -0.0143 |
| ACGTCCGC | 0.166 |
| GAGAGACC | -0.0428 |
| ACAACCGT | -0.197 |

A stretch of the results above, for reference:

| Sequence | PBM E-score |
| --- | --- |
| AAAATGGT | 0.122 |
| CTCCCAAA | 0.0575 |
